From patent US5244602A, “Photochromic naphthopyrans” (PPG Industries, Inc., priority 1990, dated 1993)
For at least one compound, name, drawing or mass did not settle the structure.

Legend:
[1] = Absorption maximum of naphthopyran imbibed into polymerizate; assay type: physicochemical; details: imbibed in poly[diethylene glycol bis(allyl carbonate)]; UV 365 nm lamp
Text: (§1) The naphthopyran compounds of Examples 1-11 were imbibed into separate polymerizates of poly[diethylene glycol bis(allyl carbonate)]. On exposure to ultraviolet light from a 365 nm lamp, the imbibed polymer samples elicited a photochromic response which faded on removal of the UV light source.

[2] = Fade rate (T 1/2) of naphthopyran imbibed into polymerizate after UV activation; assay type: physicochemical; details: At Room Temperature; imbibed in poly[diethylene glycol bis(allyl carbonate)]; UV 365 nm lamp
Text: as §1
^1. At Room Temperature

Structure (SMILES): CNC(=O)Oc1cc2ccccc2c2c1OC(c1ccccc1)(c1ccc(OC)cc1)C=C2 (centres unmarked) [Example 7, 5-methylcarbamyloxy-3-phenyl-3-methoxyphenyl-3H-naphtho[1,2-b]pyran]
- Absorption λ Max [1]: 467 NM
- Fade Rate T 1/2 [2]: 1.37 min
